# Source: PubChem BioAssay AID2685 (National Center for Advancing Translational Sciences (NCATS), 2010)
# Among all 320,000 compounds or so, about 2,100 (0.66%) were called active. Inconclusive means that the source gave no clear call. Such entries were picked first, then a sample of the others. Calls come from the whole dose curve; as a rule, active = well fitted inhibition curve with a large enough effect in the signal ratio, with a control signal flat (not every such curve was filed as active); inconclusive = small, poorly fitted or top-dose-only effect, or effect the other way, or a change in a side signal; inactive = flat fitted curve, though single readings scatter; the % refers to the signal ratio. A potency beside an inconclusive call is a rough fit, not a confirmed value. Where a SMILES comes first, the peptide text is derived from it. The star is where a group is joined. OBn = c1ccc(CO*)cc1
# Test: qHTS Assay for Lipid Storage Modulators in Drosophila S3 Cells
# Conditions: BODIPY lipid droplet fluorescence, 18-24 h, cells fed with added oleic acid; lipid storage change, negative = inhibition: at 46.1 µM (top of the series) unless noted
# In short: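 Laser-scanning cytometry quantifies lipid droplet accumulation (500–530 nm total intensity; droplet/cell object ratio) in oleic acid-fed (400 uM added) Drosophila S3 cells treated with a concentration series. 20 uM Triacsin C defined 100% inhibition.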
# % is set by controls: 0 for no effect and ±100 for the full control effect; potency is the fitted concentration of half-maximal effect.
Structure (SMILES),"lipid storage change, negative = inhibition",Potency
O=C(CSc1n[nH]c(=O)[nH]c1=O)c1cccc([N+](=O)[O-])c1,inconclusive: 20.5%,–
CC(C)CCOC(=O)C1C2C=CC3(CN(Cc4cccs4)C(=O)C13)O2 (stereo not drawn),inconclusive: -10.2%,–
Cc1ccccc1N1CCN(S(=O)(=O)N(C)C)CC1,inconclusive: 30.3%,–
COc1ccc(/C=N/NC(=O)CC(=O)NCc2cccnc2)c(OC)c1,inconclusive: 20.1%,–
CC(C)Oc1ccc2c(=O)c(-c3ccccc3)coc2c1,–,"inconclusive: 13000 nM [activator, single point]"
CC(C)C(NC(=O)c1cccs1)C(=O)NC1=NCCS1 (stereo not drawn),inconclusive: 19%,–
Cc1cc(C2=NNC(=NC3CC3)SC2)c(C)n1-c1c(C)n(C)n(-c2ccccc2)c1=O,inconclusive: 18.7%,–
Cc1ccc(CNC(=O)CNS(=O)(=O)c2cccc3nsnc23)cc1,inconclusive: 20.1%,–
CC1(C)CC(NC(=O)CCc2ccccc2)CC(C)(C)N1,inconclusive: -20.1%,–
COc1ccc(C2C(C(=O)c3ccco3)=C(O)C(=O)N2CC2CCCO2)cc1OC (stereo not drawn),inconclusive: -76.4%,–
CCN(CC)C(=O)C1CCCN(Cc2ccc(OC)c(C)c2)C1 (stereo not drawn),inconclusive: -12.7%,–
COc1cccc(NC(=O)CSc2ccc(-c3ccco3)nn2)c1,inconclusive: 4.82%,–
CCNc1nc(NCC)n2c(SCC(=O)Nc3ccc(F)cc3)nnc2n1,inconclusive: 12.4%,–
CCc1nnc(NC(=O)CSc2nc(C)c3c(c2C#N)CCCC3)s1,–,"inconclusive: 206 nM [falling, full curve]"
Cc1c(NC(=O)Nc2ccc(Cl)c(Cl)c2)c(=O)n(-c2ccccc2)n1C,–,"inconclusive: 4.1 nM [falling, full curve, poor fit]"
CCOc1cc(/C=C(\C#N)C(=O)Nc2ccccc2[N+](=O)[O-])ccc1OCc1cccc2ccccc12,inconclusive: 121%,–
O=C(CSc1nnc(-c2ccc(Cl)cc2)o1)N1CCN(c2ccccc2)CC1,–,"inconclusive: 517 nM [activator, full curve]"
O=C(Nc1ccc(Cl)c(S(=O)(=O)N2CCOCC2)c1)C1CCC1,inconclusive: 14.2%,–
CCc1nnc(NC(=O)C2=CCN(S(=O)(=O)c3ccccc3)CC2)s1,inconclusive: -23.2%,–
CSc1nc(C)c2c(n1)N(c1ccc(C(C)C)cc1)CC2,–,"inconclusive: 29100 nM [falling, single point]"
S=C(NCCc1ccc(Cl)cc1)NC1CCCC1,–,"inconclusive: 23100 nM [falling, partial curve, poor fit]"
CCC(=O)n1nc(NCc2ccccc2OC)nc1NCc1ccccc1OC,inconclusive: -16.7%,–
Cn1c(SCC(=O)Nc2ccc3cn[nH]c3c2)nnc1-c1cccs1,inconclusive: 24.2%,–
CC(=O)OC1c2ccccc2C(=O)N1Cc1ccccc1 (stereo not drawn),inconclusive: -74.7%,–
COC(CNC(=O)c1ccc(CS(=O)(=O)c2ccc(C)cc2)o1)OC,inactive,–
COc1ccccc1C(N)=S,inconclusive: 4.46%,–

Structure (SMILES),"lipid storage change, negative = inhibition",Potency
CC(Sc1nnnn1C)C(=O)Nc1cc(S(=O)(=O)N2CCCCC2)ccc1Cl (stereo not drawn),inconclusive: 19.8%,–
Cc1cc(C)c(NC(=O)CS(=O)CC(=O)N2CCN(c3ccccc3)CC2)c(C)c1 (stereo not drawn),–,"inconclusive: 4.6 nM [rising, full curve, poor fit]"
COC(=O)c1ccc(NC(=O)CSc2nncn2-c2cccnc2)cc1,inconclusive: 101%,–
Cc1ccc(Cn2nnc3c(=O)n(Cc4cccc(C)c4)cnc32)cc1,–,"inconclusive: 9200 nM [activator, partial curve, poor fit]"
CC(=O)c1ccc(S(=O)(=O)Nc2cc3c(cc2C(C)=O)OCO3)cc1,inconclusive: 11.3%,–
COc1cc(NC(=O)c2ccc(S(=O)(=O)N(C)C)cc2)cc(OC)c1OC,inconclusive: 1.32%,–
COc1ccc(C2Nc3ccccc3C(=O)N2c2ccc(Cl)cc2)cc1Cn1cc([N+](=O)[O-])cn1 (stereo not drawn),–,"inconclusive: 18400 nM [activator, single point]"
COC(=O)c1cc(N=CC2=C(O)CC(C)(C)CC2=O)cc(C(=O)OC)c1,inconclusive: 51.1%,–
O=C(Nc1ccc(F)cc1)c1ccc(S(=O)(=O)N2CCCC2)cc1,inconclusive: 71.1%,–
CCc1nn(CC(=O)NCCCc2ccccc2)c(=O)c2cc3c(OC)cccc3n12,inconclusive: -24.4%,–
COCCNCCCOc1ccc(Br)cc1Cl,inconclusive: 36%,–
Cc1cc(C(=O)N/N=C2\CCCC(=O)C2)c2ccccc2n1,inconclusive: -3.83%,–
CCN(CCO)Cc1csc2ccc(Cl)cc12,inconclusive: -18.3%,–
Cc1cc(C)n(CCNC(=O)c2ccc3c(c2)OCO3)n1,inconclusive: 43%,–
O=C(CNCc1cccs1)NC12CC3CC(CC(C3)C1)C2,–,"inconclusive: 130 nM [falling, full curve, poor fit]"
COCCn1c(C)cc(C2=NNC(=Nc3ccc(OC)cc3)SC2)c1C,inconclusive: 34.1%,–
COc1ccc([N+](=O)[O-])cc1NC(=O)c1ccc(C)o1,–,"inconclusive: 5.2 nM [activator, full curve, poor fit]"
N#Cc1ccc(NC(=O)c2cc(=O)c3ccccc3o2)cc1,inconclusive: -28%,–
O=C(CCCl)Nc1cc(SCCO)cc([N+](=O)[O-])c1,inconclusive: 8.67%,–
CC(=O)NCCC(=O)Nc1nc(-c2c[nH]c3ccccc23)cs1,–,active: 14600 nM
COc1cc(C)c(Cl)c(C)c1S(=O)(=O)NC1CC(C)(C)NC(C)(C)C1,inconclusive: 9.07%,–
C/C=C/C(O)c1ccc2ccccc2c1 (stereo not drawn),–,"inconclusive: 29100 nM [activator, single point]"
CC1(C2CC2)NC(=O)N(CC(=O)Nc2ccccc2F)C1=O (stereo not drawn),inconclusive: -23.3%,–
O=C(c1ccco1)N1CCN(S(=O)(=O)c2c(Cl)cccc2Cl)CC1,inconclusive: 21%,–
CC(C)(C)C1(O)CC(C(F)(F)F)=NN1C(=O)CCc1ccccc1 (stereo not drawn),inconclusive: -19.9%,–
OC(CNCCc1ccc(Cl)cc1)COc1cc(Cl)ccc1Cl (stereo not drawn),–,"inconclusive: 20600 nM [falling, single point]"

Structure (SMILES),"lipid storage change, negative = inhibition",Potency
CC(C)CC1NC(=O)N(CC(=O)Nc2ccc(-c3ccccc3)cc2)C1=O (stereo not drawn),–,"inconclusive: 651 nM [falling, single point]"
O=C(CCSCCc1ccccn1)Nc1ccc(Br)cc1F,inconclusive: -0.49%,–
CC(NCc1ccc(S(N)(=O)=O)cc1)C(=O)Nc1ccc([N+](=O)[O-])cc1Cl (stereo not drawn),inconclusive: 32%,–
COC(=O)c1c(NC(=O)COc2ccc(Cl)cc2Cl)sc2c1CC(C)(C)NC2(C)C,–,"inconclusive: 1840 nM [activator, full curve]"
CCC(C)C(N)C(=O)NC(CCC(=O)OCc1ccccc1)C(N)=O (stereo not drawn) (H-Ile-Glu(OBn)-NH2; configuration not given here),inconclusive: -35.8%,–
O=C(Cc1n[nH]c(=O)c2ccccc12)OCc1c(Cl)cccc1Cl,inconclusive: 12.1%,–
COc1cc(NC(=O)c2cc(Cl)ccc2Cl)ccc1-c1cc2ccccc2oc1=O,inconclusive: -19.3%,–
CCCc1cc(=O)[nH]c(SCC(=O)N2CCN(S(=O)(=O)c3ccc(Cl)cc3)CC2)n1,inconclusive: 65.3%,–
N[C@@H](Cc1ccc(O)cc1)C(=O)Nc1ccc2ccccc2c1,inconclusive: -21.3%,–
Cc1cc(C)cc(C(=O)n2cnnc2N)c1,inconclusive: 19.4%,–
O=C(CNc1ccccc1F)N/N=C/C1CC=CCC1 (stereo not drawn),inconclusive: -11.9%,–
CCn1c2ccccc2c2cc(NC(=O)CSc3nnc(-c4cccc(OC)c4)n3N)ccc21,–,"inconclusive: 1840 nM [activator, partial curve]"
COc1ccc(NC(=O)CC2SC(=Nc3ccccc3)NC2=O)cc1 (stereo not drawn),–,"inconclusive: 20600 nM [falling, partial curve]"
CCOC(=O)c1[nH]c2cc3c(cc2c1NC(=O)CN1CCN(CCO)CC1)OCO3,inconclusive: 14%,–
COc1cc(OC)nc(NC(=O)COC(=O)C2CCCCC2)n1,inconclusive: 9.43%,–
COc1ccc(S(=O)(=O)NCc2cc(=O)n(C)c(=O)n2C)cc1F,–,"inconclusive: 206 nM [activator, full curve, poor fit]"
CCOCCCn1c(SC(C(=O)Nc2cc(C)ccc2C)c2ccccc2)nnc1-c1ccc(Cl)cc1 (stereo not drawn),–,"inconclusive: 130 nM [activator, full curve, poor fit]"
CC1(C)CC(=O)C2=C(C1)N1CCCCC1CC2=O (stereo not drawn),inconclusive: 19.1%,–
COc1ccc(C)c(NC(=O)C2CC(=O)NC3=C2C(=O)CCC3)c1 (stereo not drawn),inconclusive: 1.49%,–
Cc1occc(=O)c1OCc1ccccc1,inconclusive: -1.77%,–
Cn1c(=O)c2c(ncn2CC(=O)OCC(=O)NNC(=O)c2ccc(Cl)cc2)n(C)c1=O,inconclusive: 10.6%,–
CCC(C)NC(=O)Cn1cnc2sc(C)c(S(=O)(=O)N3CCCCC3)c2c1=O (stereo not drawn),–,"inconclusive: 3260 nM [activator, partial curve, poor fit]"
O=C(Nc1ccc(N2CCN(C(=O)c3ccco3)CC2)cc1)c1cc(Br)ccc1Cl,inconclusive: 0.372%,–
CCN(CC)C(=O)c1ccc(CS(=O)(=O)c2ccc(OC)cc2)o1,inconclusive: 10%,–
CCC(C)c1ccc(NC(=S)N2CCN(C(=O)C3CCCO3)CC2)cc1 (stereo not drawn),inconclusive: -71.9%,–
CC(C)(C)n1ncc2c(=O)n(CC(=O)N3CCCC3)cnc21,inconclusive: -23%,–

# In a second layout: 16 of the compounds above.
Structure (SMILES)	lipid storage change, negative = inhibition	Potency
CCN(CC)C(=O)C1CCCN(Cc2ccc(OC)c(C)c2)C1 (stereo not drawn)	inconclusive: -12.7%	–
COc1cccc(NC(=O)CSc2ccc(-c3ccco3)nn2)c1	inconclusive: 4.82%	–
CCNc1nc(NCC)n2c(SCC(=O)Nc3ccc(F)cc3)nnc2n1	inconclusive: 12.4%	–
CCc1nnc(NC(=O)CSc2nc(C)c3c(c2C#N)CCCC3)s1	–	inconclusive: 206 nM [falling, full curve]
Cc1c(NC(=O)Nc2ccc(Cl)c(Cl)c2)c(=O)n(-c2ccccc2)n1C	–	inconclusive: 4.1 nM [falling, full curve, poor fit]
CCOc1cc(/C=C(\C#N)C(=O)Nc2ccccc2[N+](=O)[O-])ccc1OCc1cccc2ccccc12	inconclusive: 121%	–
O=C(CSc1nnc(-c2ccc(Cl)cc2)o1)N1CCN(c2ccccc2)CC1	–	inconclusive: 517 nM [activator, full curve]
O=C(Nc1ccc(Cl)c(S(=O)(=O)N2CCOCC2)c1)C1CCC1	inconclusive: 14.2%	–
CCc1nnc(NC(=O)C2=CCN(S(=O)(=O)c3ccccc3)CC2)s1	inconclusive: -23.2%	–
CSc1nc(C)c2c(n1)N(c1ccc(C(C)C)cc1)CC2	–	inconclusive: 29100 nM [falling, single point]
S=C(NCCc1ccc(Cl)cc1)NC1CCCC1	–	inconclusive: 23100 nM [falling, partial curve, poor fit]
CCC(=O)n1nc(NCc2ccccc2OC)nc1NCc1ccccc1OC	inconclusive: -16.7%	–
Cn1c(SCC(=O)Nc2ccc3cn[nH]c3c2)nnc1-c1cccs1	inconclusive: 24.2%	–
CC(=O)OC1c2ccccc2C(=O)N1Cc1ccccc1 (stereo not drawn)	inconclusive: -74.7%	–
COC(CNC(=O)c1ccc(CS(=O)(=O)c2ccc(C)cc2)o1)OC	inactive	–
COc1ccccc1C(N)=S	inconclusive: 4.46%	–
